Publication PMC11237091
Results are given in words; binding and its absence hold for the method and conditions named. Binding seen in cells or lysates may run through a third protein. Some results given as binding are weak or reduced against the parent protein; the word gives no strength.

Amino acid sequences for entries named in this document (tags omitted).
UniProt P23443: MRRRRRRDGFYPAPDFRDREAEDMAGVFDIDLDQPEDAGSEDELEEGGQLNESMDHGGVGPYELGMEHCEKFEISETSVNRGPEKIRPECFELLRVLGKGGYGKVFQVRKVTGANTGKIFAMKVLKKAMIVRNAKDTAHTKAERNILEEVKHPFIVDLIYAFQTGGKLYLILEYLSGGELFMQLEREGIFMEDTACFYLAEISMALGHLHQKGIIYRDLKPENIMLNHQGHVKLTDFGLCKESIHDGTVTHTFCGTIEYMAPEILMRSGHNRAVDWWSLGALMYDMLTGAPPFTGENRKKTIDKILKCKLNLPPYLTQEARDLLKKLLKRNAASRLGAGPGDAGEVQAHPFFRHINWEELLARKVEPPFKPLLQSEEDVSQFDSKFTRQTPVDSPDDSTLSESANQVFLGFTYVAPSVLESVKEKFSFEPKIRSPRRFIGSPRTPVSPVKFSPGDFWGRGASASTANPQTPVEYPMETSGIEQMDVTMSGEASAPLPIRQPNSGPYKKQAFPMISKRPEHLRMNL
UniProt P67809: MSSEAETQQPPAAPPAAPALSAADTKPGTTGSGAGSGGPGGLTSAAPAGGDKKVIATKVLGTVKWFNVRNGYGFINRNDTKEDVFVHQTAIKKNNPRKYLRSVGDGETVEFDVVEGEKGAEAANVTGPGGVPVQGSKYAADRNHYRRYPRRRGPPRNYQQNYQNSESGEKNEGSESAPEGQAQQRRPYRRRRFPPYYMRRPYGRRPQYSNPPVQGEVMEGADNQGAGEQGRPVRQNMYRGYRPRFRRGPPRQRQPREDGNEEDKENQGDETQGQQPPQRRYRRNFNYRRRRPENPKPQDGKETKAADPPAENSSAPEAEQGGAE

Tests used:
[1] = biological target: p70S6K (human (endogenous in ES cell lines)) (UniProt P23443); test: co-IP; ES cell lysates incubated with primary antibodies overnight, beads 4 h, Western blot; normal IgG as negative control; also after mutation of Ser102 of YBX1 and after SETD8 knockdown
[2] = biological target: T1, SETD8 (lysine methyltransferase 5A) (human (endogenous in A673 and other ES cell lines)) (UniProt Q9NQR1); test: co-IP; interaction detected in the cytoplasm and in the nucleus of ES cells (Fig. S6E, F)
T1 sequence: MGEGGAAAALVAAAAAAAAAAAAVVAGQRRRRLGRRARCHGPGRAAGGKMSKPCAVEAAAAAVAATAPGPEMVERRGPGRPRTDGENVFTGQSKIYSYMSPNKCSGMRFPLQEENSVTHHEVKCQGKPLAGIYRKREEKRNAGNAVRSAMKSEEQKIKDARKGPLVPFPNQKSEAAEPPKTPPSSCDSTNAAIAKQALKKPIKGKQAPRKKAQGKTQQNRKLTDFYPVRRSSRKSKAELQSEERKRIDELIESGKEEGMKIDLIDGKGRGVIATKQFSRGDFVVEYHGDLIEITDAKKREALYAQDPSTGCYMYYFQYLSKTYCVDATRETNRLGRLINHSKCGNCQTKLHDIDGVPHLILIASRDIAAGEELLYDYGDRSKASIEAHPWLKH

[3] = biological target: T1, SETD8 (lysine methyltransferase 5A) (human (endogenous in A673 and other ES cell lines)); test: co-IP; ES cell lysates incubated with primary antibodies overnight, beads 4 h, Western blot; normal IgG as negative control; also after mutation of Ser102 of YBX1 and after SETD8 knockdown

binding [1]	binding [2]	binding [3]	Substance
no binding	–	–	YBX1 (from UniProt P67809 1-324) (other; other documents disagree on this pair)
–	binds	binds	YBX1 (from UniProt P67809 1-324)
